PubChem BioAssay AID1259254 | NCATS, 2017

- Aim: 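Genome-wide screen for genes that prevent DNA re-replication in cancer cells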 (primary screen)
- Cells: human HCT116 colorectal cancer cells
- Knock-down reagent: single siRNA against human genes
- Duration: 3 days
- Measured: 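Nuclei stained with Hoechst and imaged; cell-cycle phase assigned by DNA content; G2 share scaled per plate, non-targeting siRNA 0%, GMNN siRNA 100%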
- Direction: G2 robust z-score and G2 cells, % of GMNN control: higher = more G2 cells, more excess DNA replication; raw share of cells in G2: higher = larger share of cells with G2 DNA content
- Hit rule: 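An siRNA counts as active if its G2 robust z-score lies at least 5 MADs above the screen median; here such calls match roughly 38% of GMNN control or more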
Here is a random part of about 59,000 deposited reagents. About 1,550 of all reagents (2.6%) were called active. 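G2 share is only a proxy for re-replication; each gene was hit by three separate siRNAs, and active genes were retested.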 Raw values vary from plate to plate and are shown uncorrected. Unmarked entries are inactive. Reagents against one gene are numbered here. Not stated in the record: the amount of reagent.

gene	siRNA no.	G2 robust z-score	G2 cells, % of GMNN control	raw share of cells in G2 (%)
MICAL2	1	0.00461	3	4.22
MICAL2	2	0.0502	3.32	6.1
MICAL2	3	1.78	15.5	11.1
MICAL2	4	-0.191	1.62	4.77
MICAL2	5	-0.982	-3.94	1.76
MICAL2	6	-0.591	-1.19	2.55
SMPD4 (sphingomyelin phosphodiesterase 4)	1	0.301	5.08	6.48
SMPD4 (sphingomyelin phosphodiesterase 4)	2	1.22	11.6	8.93
SMPD4 (sphingomyelin phosphodiesterase 4)	3	0.578	7.04	5.38
CYYR1 (cysteine and tyrosine rich 1)	1	0.798	8.58	7.53
CYYR1 (cysteine and tyrosine rich 1)	2	-0.143	1.96	3.91
CYYR1 (cysteine and tyrosine rich 1)	3	-0.0166	2.85	2.65
GRIP1 (glutamate receptor interacting protein 1)	1	0.684	7.78	6.53
GRIP1 (glutamate receptor interacting protein 1)	2	1.65	14.5	9.02
GRIP1 (glutamate receptor interacting protein 1)	3	7.79 (active)	57.8	29.6
TMEM70 (transmembrane protein 70)	1	0.526	6.67	5.99
TMEM70 (transmembrane protein 70)	2	3.42	27	15.7
TMEM70 (transmembrane protein 70)	3	4.77	36.5	15.3
C2orf76 (chromosome 2 open reading frame 76)	1	-0.36	0.433	3.48
C2orf76 (chromosome 2 open reading frame 76)	2	1.48	13.3	8.44
C2orf76 (chromosome 2 open reading frame 76)	3	0.248	4.71	6.05
RAD51D (RAD51 paralog D)	1	-0.29	0.926	5.3
RAD51D (RAD51 paralog D)	2	-0.148	1.93	5.42
RAD51D (RAD51 paralog D)	3	2.29	19.1	10.5
RC3H1 (ring finger and CCCH-type domains 1)	1	1.04	10.3	7.27
RC3H1 (ring finger and CCCH-type domains 1)	2	-0.279	1.01	3.22
RC3H1 (ring finger and CCCH-type domains 1)	3	-1.14	-5.05	1.31

Looked up above:
Result for SMPD4 (sphingomyelin phosphodiesterase 4) #3 in “raw share of cells in G2 (%)”: 5.38
For “G2 robust z-score”, SMPD4 (sphingomyelin phosphodiesterase 4) #2 reads 1.22
MICAL2 #2, G2 robust z-score → 0.0502
For “G2 cells, % of GMNN control”, CYYR1 (cysteine and tyrosine rich 1) #1 reads 8.58

The results go on.
gene	siRNA no.	G2 robust z-score	G2 cells, % of GMNN control	raw share of cells in G2 (%)
H2AZ1 (H2A.Z variant histone 1)	1	-0.65	-1.61	4.55
H2AZ1 (H2A.Z variant histone 1)	2	-0.326	0.671	4.33
H2AZ1 (H2A.Z variant histone 1)	3	-0.423	-0.0115	3.52
TPP1 (tripeptidyl peptidase 1)	1	0.0299	3.18	6.67
TPP1 (tripeptidyl peptidase 1)	2	-0.503	-0.57	4.71
TPP1 (tripeptidyl peptidase 1)	3	-1.15	-5.1	2.01
TUBG1 (tubulin gamma 1)	1	0.0806	3.53	5.58
TUBG1 (tubulin gamma 1)	2	2.08	17.6	10.3
TUBG1 (tubulin gamma 1)	3	5.42 (active)	41.1	22.9
MCM7 (minichromosome maintenance complex component 7)	1	-1.13	-4.95	3.45
MCM7 (minichromosome maintenance complex component 7)	2	-0.854	-3.04	4.27
MCM7 (minichromosome maintenance complex component 7)	3	1.54	13.8	7.74
SNAPIN (SNAP associated protein)	1	-1.6	-8.31	3.03
SNAPIN (SNAP associated protein)	2	-0.206	1.52	4.66
SNAPIN (SNAP associated protein)	3	-0.032	2.74	4.8
FBXO3 (F-box protein 3)	1	2.64	21.5	12.5
FBXO3 (F-box protein 3)	2	0.808	8.65	7.69
FBXO3 (F-box protein 3)	3	-0.784	-2.55	2.41
ZNF594 (zinc finger protein 594)	1	-0.257	1.16	3.2
ZNF594 (zinc finger protein 594)	2	-0.19	1.63	6.65
ZNF594 (zinc finger protein 594)	3	-0.425	-0.0209	3.63
